Measurements from article doi:10.1101/2021.11.20.469315.
No constants are given. Whether binding was seen depends on the method and setting. In cells and extracts the contact can be indirect. These calls come from enrichment with a bait or labelling near it, and not all partners need be listed.

Protein sequences, listed by entry. Tags and fused reporters are not part of them.
UniProt Q9V3G1: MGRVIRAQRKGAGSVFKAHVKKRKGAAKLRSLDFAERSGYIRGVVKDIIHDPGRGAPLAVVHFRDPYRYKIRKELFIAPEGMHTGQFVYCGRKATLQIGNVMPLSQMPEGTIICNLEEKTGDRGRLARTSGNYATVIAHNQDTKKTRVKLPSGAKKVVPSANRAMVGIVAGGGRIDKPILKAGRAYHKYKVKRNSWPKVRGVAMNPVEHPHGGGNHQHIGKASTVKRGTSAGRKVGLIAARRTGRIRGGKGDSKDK
UniProt O76324: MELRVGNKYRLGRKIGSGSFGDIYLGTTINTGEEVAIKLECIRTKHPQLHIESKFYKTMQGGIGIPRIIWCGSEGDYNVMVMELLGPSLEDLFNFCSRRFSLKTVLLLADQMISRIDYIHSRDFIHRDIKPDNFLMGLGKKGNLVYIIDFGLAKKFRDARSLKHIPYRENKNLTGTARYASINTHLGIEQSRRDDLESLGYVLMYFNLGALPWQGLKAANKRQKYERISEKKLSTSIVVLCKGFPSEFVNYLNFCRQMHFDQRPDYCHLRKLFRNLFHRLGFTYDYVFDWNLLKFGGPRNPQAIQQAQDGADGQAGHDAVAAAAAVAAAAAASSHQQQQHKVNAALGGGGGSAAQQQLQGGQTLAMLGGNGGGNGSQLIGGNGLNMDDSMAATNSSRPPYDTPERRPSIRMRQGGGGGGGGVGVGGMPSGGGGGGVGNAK

B1: TIMELESS (TIM) (protein, UniProt P49021 1-1398)
chain: MDWLLATPQLYSAFSSLGCLEGDTYVVNPNALAILEEINYKLTYEDQTLRTFRRAIGFGQNVRSDLIPLLENAKDDAVLESVIRILVNLTVPVECLFSVDVMYRTDVGRHTIFELNKLLYTSKEAFTEARSTKSVVEYMKHILESDPKLSPHKCDQINNCLLLLRNILHIPETHAHCVMPMMQSMPHGISMQNTILWNLFIQSIDKLLLYLMTCPQRAFWGVTMVQLIALIYKDQHVSTLQKLLSLWFEASLSESSEDNESNTSPPKQGSGDSSPMLTSDPTSDSSDNGSNGRGMGGGMREGTAATLQEVSRKGQEYQNAMARVPADKPDGSEEASDMTGNDSEQPGSPEQSQPAGESMDDGDYEDQRHRQLNEHGEEDEDEDEVEEEEYLQLGPASEPLNLTQQPADKVNNTTNPTSSAPQGCLGNEPFKPPPPLPVRASTSAHAQMQKFNESSYASHVSAVKLGQKSPHAGQLQLTKGKCCPQKRECPSSQSELSDCGYGTQVENQESISTSSNDDDGPQGKPQHQKPPCNTKPRNKPRTIMSPMDKKELRRKKLVKRSKSSLINMKGLVQHTPTDDDISNLLKEFTVDFLLKGYSYLVEELHMQLLSNAKVPIDTSHFFWLVTYFLKFAAQLELDMEHIDTILTYDVLSYLTYEGVSLCEQLELNARQEGSDLKPYLRRMHLVVTAIREFLQAIDTYNKVTHLNEDDKAHLRQLQLQISEMSDLRCLFVLLLRRFNPSIHSKQYLQDLVVTNHILLLILDSSAKLGGCQTIRLSEHITQFATLEVMHYYGILLEDFNNNGEFVNDCIFTMMHHIGGDLGQIGVLFQPIILKTYSRIWEADYELCDDWSDLIEYVIHKFMNTPPKSPLTIPTTSLTEMTKEHNQEHTVCSWSQEEMDTLYWYYVQSKKNNDIVGKIVKLFSNNGNKLKTRISIIQQLLQQDIITLLEYDDLMKFEDAEYQRTLLTTPTSATTESGIEIKECAYGKPSDDVQILLDLIIKENKAQHLLWLQRILIECCFVKLTLRSGLKVPEGDHIMEPVAYHCICKQKSIPVVQWNNEQSTTMLYQPFVLLLHKLGIQLPADAGSIFARIPDYWTPETMYGLAKKLGPLDKLNLKFDASELEDATASSPSRYHHTGPRNSLSSVSSLDVDLGDTEELALIPEVDAAVEKAHAMASTPSPSEIFAVPKTKHCNSIIRYTPDPTPPVPNWLQLVMRSKCNHRTGPSGDPSDCIGSSSTTVDDEGFGKSISAATSQAASTSMSTVNPTTTLSLNMLNTFMGSHNENSSSSGCGGTVSSLSMVALMSTGAAGGGGNTSGLEMDVDASMKSSFERLEVNGSHFSRANNLDQEYSAMVASVYEKEKELNSDNVSLASDLTRMYVSDEDDRLERTEIRVPHYH

Target: Drosophila PERIOD (dPER), N-terminal 3xFLAG-tagged, wild type (D. melanogaster) (UniProt P07663)
Test: affinity purification with mass spectrometry

Molecule | binding
60S ribosomal protein L8 (RpL8, FBgn0261602) (from UniProt Q9V3G1 1-256) | binds
DOUBLETIME (DBT) (from UniProt O76324 1-440) (enzyme) | binds
B1 | binds
